# Values of other authors in patent US12097222B2, “Methods for attenuating viral infection and for treating lung injury” (Spiritus Therapeutics, Inc., priority 2019, dated 2024).
# At least one structure is not confirmed: it was looked up by name or label, or the drawing left a doubt.
# Tested on: MSC migration
# Settings: cited from earlier work
compound,measurement,value
COC[C@H]1OC(=O)c2coc3c2[C@@]1(C)C1=C(C3=O)[C@@H]2CCC(=O)[C@@]2(C)C[C@H]1OC(C)=O [wortmannin],effect on IGF-1-induced increase in MSC migration in response to SDF-1,attenuated
